Measurements taken from patent US6013626A (priority 1995, dated 2000).
At least one compound was matched to its structure with a doubt left.

Experiments:
[1] = tested on: murine leukemia (L1210 or P388), murine solid tumor, human solid tumor and low malignancy fibroblast (LML); conditions: μg/disk differs per compound (0.2-250 μg/disk)
[2] = tested on: tumor (leukemia) and normal cell (CFUGM) lines; conditions: μg/disk per compound where printed

SMILES | Corbett Assay, Type of Cytotoxicity [1] | Valeriote Assay, Type of Cytotoxicity [2]
COC(=O)[C@H](C)CNC(=O)[C@@H](Cc1ccc(OC)c(Cl)c1)NC(=O)/C=C/C[C@@H]1O[C@@H](c2ccccc2)[C@H](O)[C@H]1C [Cryptophycin 6] | I (inactive (inhibition zones <250)) | 
COc1ccc(C[C@H]2NC(=O)/C=C/C[C@@H]([C@H](C)[C@@H](O)[C@@H](Cl)c3ccccc3)OC(=O)[C@H](CC(C)C)OC(=O)[C@H](C)CNC2=O)cc1Cl [Cryptophycin 8] |  | N
COc1ccc(C[C@H]2NC(=O)/C=C/C[C@@H]([C@H](C)/C=C/c3ccccc3)OC(=O)[C@H](CC(C)C)OC(=O)[C@H](C)CNC2=O)cc1Cl [Cryptophycin 3] |  | N
COc1ccc(C[C@H]2NC(=O)/C=C/C[C@@H]([C@H](C)[C@H]3O[C@@H]3c3ccccc3)OC(=O)[C@H](CC(C)C)OC(=O)[C@H](C)CNC2=O)cc1Cl [Cryptophycin 1] |  | N
COc1ccc(C[C@H]2NC(=O)/C=C/C[C@@H]([C@H](C)/C=C/c3ccccc3)OC(=O)[C@H](CC(C)C)OC(=O)[C@H](C)CNC2=O)cc1 [Cryptophycin 4] |  | N
